Values from PubChem BioAssay AID1508588 (Peter MacCallum Cancer Centre, 2020)
Test: 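Knock-downs boosting vemurafenib effects on melanoma cell growth or lactate release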 (primary screen). System: human WM266.4 melanoma cells (BRAF V600 mutant). Knock-down reagent: siRNA pool against human genes, 40 nM. Time to read-out: 96 h from transfection to read-out. Challenge: vemurafenib 300 nM (about IC25), added 48 h after transfection, for 48 h; comparison arm got DMSO vehicle only. Measurement: 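Ratios to non-targeting siRNA for cell gain, counted as DAPI nuclei after minus before drug and averaged over two replicates, and for absorbance-read medium lactate per cell; both binned into fold-change classes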. Reading the numbers: cell gain with vemurafenib: higher = more cell gain than with non-targeting siRNA; lactate per cell with vemurafenib: higher = more lactate made per cell. Rule for the call: 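a knock-down counts as enhancing when its fold-change classes with vehicle and with vemurafenib, taken together, show a stronger drug effect on cell gain or lactate per cell; exact class pairs not stated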. Calls: active = enhances vemurafenib effect; inactive = no enhancement seen.
The whole screen tested about 18,000 reagents; shown is a random part of them. 790 of all reagents (4.4%) were called active. 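Calls rest on a combination of fold-change classes in drug and vehicle arms, not all shown here.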 Entries without a mark were called inactive.

What is on record for DDX4 (DEAD-box helicase 4)?
cell gain with vemurafenib: 0.53; lactate per cell with vemurafenib: 0.76

With DHX32 (DEAH-box helicase 32 (putative)), what was measured?
cell gain with vemurafenib: 0.21; lactate per cell with vemurafenib: 1.06

Which result is listed for IFNA21 (interferon alpha 21)?
cell gain with vemurafenib: 0.16; lactate per cell with vemurafenib: 0.71

For GHITM (growth hormone inducible transmembrane protein), how do the results read?
cell gain with vemurafenib: 0.94; lactate per cell with vemurafenib: 1.26

What is on record for DCAF8L1 (DDB1 and CUL4 associated factor 8 like 1)?
cell gain with vemurafenib: 0.41; lactate per cell with vemurafenib: 0.86

What did the screen give for ACAD8 (acyl-CoA dehydrogenase family member 8)?
cell gain with vemurafenib: 0.19; lactate per cell with vemurafenib: 1.38

An excerpt from above, showing only “lactate per cell with vemurafenib”.
GHITM (growth hormone inducible transmembrane protein): 1.26
DCAF8L1 (DDB1 and CUL4 associated factor 8 like 1): 0.86

The listing continues:
With GRK6 (G protein-coupled receptor kinase 6), how do the results read?
cell gain with vemurafenib: 0.31; lactate per cell with vemurafenib: 1.29

What did the screen give for NCAN (neurocan)?
cell gain with vemurafenib: 0.7; lactate per cell with vemurafenib: 1.03

How did the screen score FAM32A (family with sequence similarity 32 member A)?
cell gain with vemurafenib: 0.47; lactate per cell with vemurafenib: 1.29

For CALN1 (calneuron 1), what does the deposit list?
cell gain with vemurafenib: 0.33; lactate per cell with vemurafenib: 1.74

For CYP20A1 (cytochrome P450 family 20 subfamily A member 1), how do the results read?
cell gain with vemurafenib: 0.4; lactate per cell with vemurafenib: 1.16

For GMIP (GEM interacting protein), what does the deposit list?
cell gain with vemurafenib: 1.21; lactate per cell with vemurafenib: 0.35

How did the screen score RPL7 (ribosomal protein L7)?
cell gain with vemurafenib: -0.11; lactate per cell with vemurafenib: 1.16

For ZNF503 (zinc finger protein 503), what was measured?
cell gain with vemurafenib: 0.67; lactate per cell with vemurafenib: 1.06

What did the screen give for APOOL (apolipoprotein O like)?
cell gain with vemurafenib: 1.08; lactate per cell with vemurafenib: 0.98

What did the screen give for FUT3 (fucosyltransferase 3 (Lewis blood group))?
cell gain with vemurafenib: 0.46; lactate per cell with vemurafenib: 1.9
